Experimental findings from publication PMC5698428 are described below.

Amino acid sequences for entries named in this document (tags omitted).
UniProt P40763, whole entry: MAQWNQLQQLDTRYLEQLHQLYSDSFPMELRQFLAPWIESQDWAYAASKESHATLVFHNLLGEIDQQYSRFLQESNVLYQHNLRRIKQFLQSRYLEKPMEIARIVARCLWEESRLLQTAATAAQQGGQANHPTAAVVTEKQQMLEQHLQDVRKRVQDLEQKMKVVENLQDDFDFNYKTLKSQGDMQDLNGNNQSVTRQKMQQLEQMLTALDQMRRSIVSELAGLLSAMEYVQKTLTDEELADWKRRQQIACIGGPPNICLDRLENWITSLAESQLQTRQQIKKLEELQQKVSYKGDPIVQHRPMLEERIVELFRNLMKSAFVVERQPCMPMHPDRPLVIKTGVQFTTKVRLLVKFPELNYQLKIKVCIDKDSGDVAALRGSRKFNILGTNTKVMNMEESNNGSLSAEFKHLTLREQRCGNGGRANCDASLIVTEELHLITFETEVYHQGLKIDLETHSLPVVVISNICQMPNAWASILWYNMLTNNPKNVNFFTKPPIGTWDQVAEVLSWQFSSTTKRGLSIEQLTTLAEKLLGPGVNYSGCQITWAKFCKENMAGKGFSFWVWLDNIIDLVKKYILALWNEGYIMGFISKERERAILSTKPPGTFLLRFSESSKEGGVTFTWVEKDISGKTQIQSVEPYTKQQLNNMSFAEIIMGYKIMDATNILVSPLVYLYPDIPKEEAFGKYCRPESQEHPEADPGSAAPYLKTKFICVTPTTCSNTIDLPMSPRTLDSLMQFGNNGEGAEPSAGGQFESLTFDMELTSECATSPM

The data set concerns the target Etag-STAT3 wt (UniProt P40763). The data set can be described thus: EMSA, supershift. The conditions noted are these: 10 mM Hepes pH 7.8, 1 mM EDTA, 5 mM MgCl2, 10% glycerol, 5 mM DTT, 2 mM Pefabloc SC, 1 mg/ml BSA, 0.1 mg/ml poly(dI-dC), 5 ug nuclear extract, ~10 fmol probe, 10 min, protein in a lysate after overexpression, label: alpha-32P dATP (Klenow fill-in). On the technique in general: A gel shift assay detects complexes by their altered migration in electrophoresis.

The exact form of at least one protein or probe is not confirmed. Where cells or extracts were used, other partners may take part. Weaker means in comparison with the reference protein, sequence or condition of that experiment. At least one verdict rests on a figure or table, not on a statement of the authors.

In the case of “CGATTCCTGGAACTGCGCGG / CAGCATTTCCGCGCAGTTCCAGGAA [SOCS3 promoter probe]”, the binding result is “binds more weakly” (IFNa2 5 ng/ml 15 min) and “binds more weakly” (LIF 15 ng/ml 15 min).

Turning to “GATCCGGGAGGGATTTACGGGAAATGCTG (double strand) [cFOS promoter probe]”, the binding result reads like this: (IFNa2 5 ng/ml 15 min) “binds more weakly”; (LIF 15 ng/ml 15 min) “binds more weakly”.
